In assay [1] the target is nLUC-OsDES1 (rice (Oryza sativa L.)). The assay can be described thus: split reporter; split luciferase complementation; nLUC-OsDES1 and cLUC-LOG co-expressed in N. benthamiana leaves; luciferase activity tested 24 h after infiltration.
The target of assay [2] is GFP-OsDES1 (rice (Oryza sativa L.)). The experiment in a line: co-IP; 35S:GFP-OsDES1 (or 35S:GFP) and 35S:Myc-LOG co-expressed in N. benthamiana; total protein extract incubated with GFP-Trap A agarose beads 60 min at 4 °C; immunoblot with anti-Myc and anti-GFP.

Among the data in PMC10010608 are binding values, retold here.

Results are given in words; binding and its absence hold for the method and conditions named. In cells and extracts the contact can be indirect. Binding can be weak; no strength is given. Where a sequence is shown, tags or fusion partners need not be part of it.

B1: cLUC-LOG (enzyme, UniProt Q5ZC82 1-242)
chain: MAMEAAAERSAGAGAAATAAPESGGGGAGERRSRFRRICVYCGSAKGRKASYQDAAVELGKELVERGIDLVYGGGSIGLMGLVSHAVHDGGRHVIGVIPKSLMPREVTGEPVGEVRAVSGMHERKAEMARFADAFIALPGGYGTLEELLEVITWAQLGIHKKPVGLLNVDGFYDPFLSFIDMAVSEGFIAEDARRIIISAPTARELVLKLEEYVPEYEVGLVWDDQMPHSFAPDLETRITSS
Take B1: the binding result in assay [1] is “binds”.

B2: Myc-LOG (enzyme, UniProt Q5ZC82 1-242)
chain: B1 chain
In the case of B2, the binding result in assay [2] is recorded as “binds”.
